For five molecules, binding results are on record in patent US8173771B2, “Humanin receptor or humanin-like polypeptide receptor” (Keio Univeristy, priority 2005, dated 2012).

Protein sequences, listed by entry. Tags and fused reporters are not part of them. Lines headed by an entry give the natural chain unless they say otherwise; changes in a name come on top. Residues count along the entry.
UniProt Q6UWB1, residues 33-636: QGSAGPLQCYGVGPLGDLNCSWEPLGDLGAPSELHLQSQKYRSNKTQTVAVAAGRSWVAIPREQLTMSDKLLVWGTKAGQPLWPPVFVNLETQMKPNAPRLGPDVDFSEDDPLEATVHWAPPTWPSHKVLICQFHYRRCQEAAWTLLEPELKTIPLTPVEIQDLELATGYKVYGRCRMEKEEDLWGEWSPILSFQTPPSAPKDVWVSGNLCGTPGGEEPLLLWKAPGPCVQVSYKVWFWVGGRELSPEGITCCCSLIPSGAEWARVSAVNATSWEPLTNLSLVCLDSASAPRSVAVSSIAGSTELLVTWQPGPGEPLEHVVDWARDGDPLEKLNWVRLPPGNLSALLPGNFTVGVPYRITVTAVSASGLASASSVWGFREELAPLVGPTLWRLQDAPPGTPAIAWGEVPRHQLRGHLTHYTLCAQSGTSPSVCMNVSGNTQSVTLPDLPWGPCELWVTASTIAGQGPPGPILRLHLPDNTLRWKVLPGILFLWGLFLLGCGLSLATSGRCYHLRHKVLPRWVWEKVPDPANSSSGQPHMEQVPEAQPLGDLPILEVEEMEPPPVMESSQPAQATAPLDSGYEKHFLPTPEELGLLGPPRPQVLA
UniProt P40189: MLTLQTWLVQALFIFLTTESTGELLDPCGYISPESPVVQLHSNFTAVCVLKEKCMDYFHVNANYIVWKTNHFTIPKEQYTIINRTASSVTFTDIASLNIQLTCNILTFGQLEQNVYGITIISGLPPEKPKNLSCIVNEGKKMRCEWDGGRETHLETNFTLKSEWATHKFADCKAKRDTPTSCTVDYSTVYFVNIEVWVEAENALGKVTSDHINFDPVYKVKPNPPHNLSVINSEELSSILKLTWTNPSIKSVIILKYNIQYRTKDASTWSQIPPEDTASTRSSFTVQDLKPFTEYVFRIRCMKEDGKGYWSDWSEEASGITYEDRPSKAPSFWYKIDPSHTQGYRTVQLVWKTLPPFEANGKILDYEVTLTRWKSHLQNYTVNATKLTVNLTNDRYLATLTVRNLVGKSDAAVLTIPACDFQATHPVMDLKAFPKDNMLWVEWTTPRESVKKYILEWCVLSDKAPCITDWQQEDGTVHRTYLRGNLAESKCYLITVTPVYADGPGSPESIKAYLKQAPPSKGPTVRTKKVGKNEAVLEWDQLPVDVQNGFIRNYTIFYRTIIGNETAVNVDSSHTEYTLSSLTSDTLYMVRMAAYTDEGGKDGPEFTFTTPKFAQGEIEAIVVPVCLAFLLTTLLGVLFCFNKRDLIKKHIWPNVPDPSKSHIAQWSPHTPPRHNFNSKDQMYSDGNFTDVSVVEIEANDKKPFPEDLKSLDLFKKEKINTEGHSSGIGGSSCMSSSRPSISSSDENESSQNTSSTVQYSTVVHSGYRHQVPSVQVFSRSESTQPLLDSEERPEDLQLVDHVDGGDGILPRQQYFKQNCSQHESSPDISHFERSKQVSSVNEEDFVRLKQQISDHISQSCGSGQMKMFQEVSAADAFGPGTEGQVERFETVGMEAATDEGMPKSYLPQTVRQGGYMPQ
UniProt O88507: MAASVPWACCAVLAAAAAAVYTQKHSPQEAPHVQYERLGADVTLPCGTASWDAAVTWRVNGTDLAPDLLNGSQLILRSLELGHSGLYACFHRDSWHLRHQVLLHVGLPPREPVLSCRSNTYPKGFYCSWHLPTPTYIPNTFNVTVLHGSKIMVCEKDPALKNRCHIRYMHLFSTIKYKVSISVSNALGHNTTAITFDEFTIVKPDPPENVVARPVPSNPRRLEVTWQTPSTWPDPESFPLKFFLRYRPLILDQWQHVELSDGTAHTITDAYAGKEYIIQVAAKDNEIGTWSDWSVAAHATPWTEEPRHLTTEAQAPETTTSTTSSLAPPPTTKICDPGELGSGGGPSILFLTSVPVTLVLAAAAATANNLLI
UniProt O70394: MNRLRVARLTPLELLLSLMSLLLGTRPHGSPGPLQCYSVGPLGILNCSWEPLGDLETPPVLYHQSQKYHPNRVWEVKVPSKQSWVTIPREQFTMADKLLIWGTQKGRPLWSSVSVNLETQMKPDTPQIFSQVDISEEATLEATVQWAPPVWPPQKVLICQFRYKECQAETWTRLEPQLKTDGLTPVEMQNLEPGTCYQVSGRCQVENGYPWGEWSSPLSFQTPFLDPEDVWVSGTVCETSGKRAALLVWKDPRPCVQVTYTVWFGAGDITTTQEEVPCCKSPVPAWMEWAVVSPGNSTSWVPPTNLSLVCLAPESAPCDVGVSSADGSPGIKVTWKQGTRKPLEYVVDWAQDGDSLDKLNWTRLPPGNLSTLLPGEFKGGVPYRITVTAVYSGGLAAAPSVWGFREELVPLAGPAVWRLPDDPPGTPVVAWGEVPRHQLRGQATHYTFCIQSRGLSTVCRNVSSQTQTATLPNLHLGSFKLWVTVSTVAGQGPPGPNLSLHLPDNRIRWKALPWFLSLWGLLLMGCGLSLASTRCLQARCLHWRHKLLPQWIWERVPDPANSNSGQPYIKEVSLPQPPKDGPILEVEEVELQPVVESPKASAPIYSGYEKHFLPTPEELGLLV
UniProt Q00560: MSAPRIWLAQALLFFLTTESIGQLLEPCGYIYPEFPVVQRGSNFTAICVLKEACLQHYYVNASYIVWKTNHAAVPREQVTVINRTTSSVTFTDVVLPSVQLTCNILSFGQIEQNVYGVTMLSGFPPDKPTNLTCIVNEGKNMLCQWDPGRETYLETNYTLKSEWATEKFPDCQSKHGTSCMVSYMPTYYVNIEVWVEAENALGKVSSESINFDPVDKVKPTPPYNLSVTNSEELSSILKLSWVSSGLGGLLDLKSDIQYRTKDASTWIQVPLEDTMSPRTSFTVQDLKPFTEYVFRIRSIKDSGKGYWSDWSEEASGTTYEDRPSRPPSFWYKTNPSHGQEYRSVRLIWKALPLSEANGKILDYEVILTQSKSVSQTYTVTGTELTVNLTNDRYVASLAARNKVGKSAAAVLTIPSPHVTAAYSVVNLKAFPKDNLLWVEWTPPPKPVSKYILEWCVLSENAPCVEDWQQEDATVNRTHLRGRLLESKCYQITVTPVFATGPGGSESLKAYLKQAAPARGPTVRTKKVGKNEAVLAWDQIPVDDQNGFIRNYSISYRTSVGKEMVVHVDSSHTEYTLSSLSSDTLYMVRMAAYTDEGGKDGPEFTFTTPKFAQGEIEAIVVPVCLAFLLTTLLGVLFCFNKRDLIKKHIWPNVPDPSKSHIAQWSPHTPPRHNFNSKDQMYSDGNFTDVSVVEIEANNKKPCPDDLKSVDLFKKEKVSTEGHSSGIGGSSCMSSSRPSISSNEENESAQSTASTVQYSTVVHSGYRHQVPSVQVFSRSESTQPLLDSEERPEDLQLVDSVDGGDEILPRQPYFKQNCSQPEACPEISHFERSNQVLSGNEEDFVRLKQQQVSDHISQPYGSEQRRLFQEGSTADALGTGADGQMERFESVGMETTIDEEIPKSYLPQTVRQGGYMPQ

Assay [1] deals with T1, C-terminally V5-tagged human CNTF-R (V5-CNTF-R) (human) (UniProt P26992).
T1 sequence (looked up): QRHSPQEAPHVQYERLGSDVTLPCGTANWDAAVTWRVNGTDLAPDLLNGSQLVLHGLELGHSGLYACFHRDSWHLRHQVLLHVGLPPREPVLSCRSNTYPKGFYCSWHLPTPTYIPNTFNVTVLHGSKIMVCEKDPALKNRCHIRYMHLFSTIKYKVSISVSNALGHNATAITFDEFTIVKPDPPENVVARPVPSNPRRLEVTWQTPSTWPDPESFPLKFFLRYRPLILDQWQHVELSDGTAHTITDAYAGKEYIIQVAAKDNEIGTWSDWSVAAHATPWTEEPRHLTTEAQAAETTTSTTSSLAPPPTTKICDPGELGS
Kind of assay: immunofluorescence-based HN binding assay (1), F11 cells overexpressing human CNTF-R and human gp130.

Assay [2] has as its target C-terminally myc-tagged human WSX-1 (mycHis-WSX-1) (human) (UniProt Q6UWB1). In words: immunofluorescence-based HN binding assay (1), F11 cells overexpressing human WSX-1 and human gp130.
Assay [3] concerns the target Humanin receptor (HNR) overexpressed in F11 cells: human CNTF-R/WSX-1/gp130 (human) (UniProt P26992+Q6UWB1+P40189). In words: immunofluorescence-based HN binding assay (1), F11 cells overexpressing human WSX-1, human CNTF-R and human gp130.
The target in assay [4] is T2, endogenous Humanin receptor (HNR) on F11 cells and on mouse primary cortical neurons (PCN) (mouse) (UniProt O88507+O70394+Q00560). Kind of assay: cold competitor in binding assay (2), F11 cells at endogenous receptor level.
In assay [5] the target is T1, C-terminally V5-tagged human CNTF-R (V5-CNTF-R) (human). In words: pull-down with HN-Sepharose 4B from lysates of F11 cells overexpressing CNTF-R, immunoblot.
In assay [6] the target is C-terminally myc-tagged human WSX-1 (mycHis-WSX-1) (human) (UniProt Q6UWB1). In words: pull-down with HN-Sepharose 4B from lysates of F11 cells overexpressing WSX-1, immunoblot. Background: In western blotting, separated proteins are transferred to a membrane and probed.
Assay [7] addresses T2, endogenous Humanin receptor (HNR) on F11 cells and on mouse primary cortical neurons (PCN) (mouse). In words: binding assay (2) with biotin-HNG on F11 cells after simultaneous siRNA knock-down of CNTF-R and WSX-1.
Assay [8] shares this target. Kind of assay: immunofluorescence HN-binding assay with biotin-HN on F11 cells after siRNA knock-down of WSX-1 and CNTF-R.

No constants are given. Whether binding was seen depends on the method and setting. For part of these data: Binding seen in cells or lysates may run through a third protein. Some results given as binding are weak or reduced against the parent protein; the word gives no strength. For part of these data: Tags and fused reporters may be left off the sequences shown.

In the case of MAPRGFSCLLLLTGEIDLPVKRRA (peptide, not shown: small tags and cut ends, biotin label, position not stated) [biotin-labeled HNG-FLAG], the binding result in assay [1], in assay [2] and in assay [3] was “binds” throughout. Take MAPRGFSCLLLLTGEIDLPVKRRA (also called S14G-HN) [S14G-Humanin (HNG)]: in assay [4], the binding result was “binds”.

B1: Humanin (HN) (peptide)
peptide: MAPRGFSCLLLLTSEIDLPVKRRA
notes: Synthetic 24-residue peptide; elsewhere it was used free and unlabeled; also called synthetic Humanin
For B1, the binding result in assay [4], in assay [5] and in assay [6] was “binds” each time. Consider MAPRGFSCLLLLTGEIDLPVKRRA (biotin label, position not stated) [Biotin-HNG], for which the binding result in assay [7] is listed as “binds”. For MAPRGFSCLLLLTSEIDLPVKRRA (biotin label, position not stated) [Biotin-HN], the binding entry in assay [8] was “binds”.
